Assay results published in paper PMC5253655.
Numbering of substitutions follows the chain as printed. These are yes or no findings as the source states them, for the method shown. Binding seen in cells or lysates may run through a third protein. Some entries that bind do so weakly or less than the wild type. Where a sequence is shown, tags or fusion partners need not be part of it.

The chains behind the UniProt entries cited, without tags or fusion partners.
UniProt P23330: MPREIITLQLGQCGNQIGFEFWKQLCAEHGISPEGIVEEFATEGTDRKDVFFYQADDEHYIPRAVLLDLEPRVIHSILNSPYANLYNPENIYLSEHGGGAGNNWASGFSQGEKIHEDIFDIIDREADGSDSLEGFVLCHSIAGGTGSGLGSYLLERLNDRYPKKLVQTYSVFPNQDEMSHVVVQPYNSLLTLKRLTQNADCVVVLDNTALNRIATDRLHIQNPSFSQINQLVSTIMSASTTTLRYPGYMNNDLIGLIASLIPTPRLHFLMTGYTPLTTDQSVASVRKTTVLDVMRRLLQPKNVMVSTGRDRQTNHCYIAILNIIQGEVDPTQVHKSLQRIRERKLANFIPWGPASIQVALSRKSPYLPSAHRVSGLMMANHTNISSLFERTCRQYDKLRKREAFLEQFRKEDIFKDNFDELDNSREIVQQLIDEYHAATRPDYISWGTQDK

How the values were obtained:
Test in all cases: co-IP; Flag immunoprecipitation (anti-Flag antibody or normal mouse serum, Protein G Sepharose) from metaphase-arrested Xenopus CSF egg extracts expressing 2xFlag-huWdr8 constructs from added mRNA; 23 °C; washes TBS-T and TBS; Western blot
2xFlag-196/197AA (human) = target: T1, 2xFlag-196/197AA (human) (UniProt Q9P2S5)
T1 sequence: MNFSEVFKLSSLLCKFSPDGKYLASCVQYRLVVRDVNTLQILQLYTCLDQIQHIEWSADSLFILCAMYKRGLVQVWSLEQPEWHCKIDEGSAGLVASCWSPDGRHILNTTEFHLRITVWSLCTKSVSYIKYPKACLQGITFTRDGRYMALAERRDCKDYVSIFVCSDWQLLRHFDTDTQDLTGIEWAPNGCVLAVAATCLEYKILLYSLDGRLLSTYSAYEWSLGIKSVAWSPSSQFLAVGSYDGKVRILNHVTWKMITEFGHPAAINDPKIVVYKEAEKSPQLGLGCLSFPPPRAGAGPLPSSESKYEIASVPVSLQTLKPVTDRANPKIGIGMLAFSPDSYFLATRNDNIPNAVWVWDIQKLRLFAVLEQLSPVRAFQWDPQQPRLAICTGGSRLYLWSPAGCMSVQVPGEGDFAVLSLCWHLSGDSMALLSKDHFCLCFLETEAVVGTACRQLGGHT

2xFlag-359/360AA (human) = target: T2, 2xFlag-359/360AA (human) (UniProt Q9P2S5)
T2 sequence: T1 sequence with A196W, A197D, W359A, D360A

[1] = target: T3, 2xFlag-huWdr8 wild-type (human) (UniProt Q9P2S5)
T3 sequence: T1 sequence with A196W, A197D

Measured: binding

γ-tubulin (from UniProt P23330 1-451)
binds: all assays above
